Assay results: patent CN113929777A
Results are given in words; binding and its absence hold for the method and conditions named. Some entries that bind do so weakly or less than the wild type.

How the values were obtained:
重组肌红蛋白(自产) [1] = target: T1, 重组肌红蛋白(自产) (UniProt P02144); experiment: indirect ELISA on coated recombinant myoglobin
T1 sequence (looked up): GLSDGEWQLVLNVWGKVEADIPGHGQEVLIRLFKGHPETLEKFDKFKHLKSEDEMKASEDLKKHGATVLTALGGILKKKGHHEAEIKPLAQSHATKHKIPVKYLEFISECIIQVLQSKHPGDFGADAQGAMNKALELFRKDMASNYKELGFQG

重组肌红蛋白(自产) [2] = target: T1, 重组肌红蛋白(自产); experiment: BLI, antibody captured on AMC sensors, MYO protein in serial dilution
重组肌红蛋白(自产) [3] = target: T1, 重组肌红蛋白(自产); experiment: indirect ELISA, recombinant myoglobin coated at 1 ug/ml, CHO supernatant

binding (重组肌红蛋白(自产) [1]): binds
binding (重组肌红蛋白(自产) [2]): binds
binding (重组肌红蛋白(自产) [3]): binds
B1: 实施例1的肌红蛋白单克隆抗体(WT) (antibody, mouse IgG1, kappa, V domains shown)
VH: QIQLVQSGPELKKPGETVKISCKASGYTYTEFSVHWVKQAPGKGLKWMGWINSETSEPTYGDDFKGRFAFSLETSASAAYLQINNLKNEDSATYFCARRAYYLFGPFTYWGQGTLVTVSA
VL: DIVLTQSPASLAVSLGQRATISCRASKSVDFNGDSYMNWHQQKPGQPPKLLIYAASQRESGIPARFSGSGSGTDFTLNIHPVEEEDAATYYCQHSNEEPYTFGGGTKLEIKR
